Results are given in words; binding and its absence hold for the method and conditions named. Binding seen in cells or lysates may run through a third protein. A yes stands for co-enrichment or nearness to the bait. Other partners may have been found.
B1: Ras GTPase-activating protein-binding protein 2 (protein, UniProt Q9UN86 1-482)
chain: MVMEKPSPLLVGREFVRQYYTLLNKAPEYLHRFYGRNSSYVHGGVDASGKPQEAVYGQNDIHHKVLSLNFSECHTKIRHVDAHATLSDGVVVQVMGLLSNSGQPERKFMQTFVLAPEGSVPNKFYVHNDMFRYEDEVFGDSEPELDEESEDEVEEEQEERQPSPEPVQENANSGYYEAHPVTNGIEEPLEESSHEPEPEPESETKTEELKPQVEEKNLEELEEKSTTPPPAEPVSLPQEPPKAFSWASVTSKNLPPSGTVSSSGIPPHVKAPVSQPRVEAKPEVQSQPPRVREQRPRERPGFPPRGPRPGRGDMEQNDSDNRRIIRYPDSHQLFVGNLPHDIDENELKEFFMSFGNVVELRINTKGVGGKLPNFGFVVFDDSEPVQRILIAKPIMFRGEVRLNVEEKKTRAARERETRGGGDDRRDIRRNDRGPGGPRGIVGGGMMRDRDGRGPPPRGGMAQKLGSGRGTGQMEGRFTGQRR
B2: Far upstream element-binding protein 2 (protein, UniProt Q92945 1-711)
chain: MSDYSTGGPPPGPPPPAGGGGGAGGAGGGPPPGPPGAGDRGGGGPGGGGPGGGSAGGPSQPPGGGGPGIRKDAFADAVQRARQIAAKIGGDAATTVNNSTPDFGFGGQKRQLEDGDQPESKKLASQGDSISSQLGPIHPPPRTSMTEEYRVPDGMVGLIIGRGGEQINKIQQDSGCKVQISPDSGGLPERSVSLTGAPESVQKAKMMLDDIVSRGRGGPPGQFHDNANGGQNGTVQEIMIPAGKAGLVIGKGGETIKQLQERAGVKMILIQDGSQNTNVDKPLRIIGDPYKVQQACEMVMDILRERDQGGFGDRNEYGSRIGGGIDVPVPRHSVGVVIGRSGEMIKKIQNDAGVRIQFKQDDGTGPEKIAHIMGPPDRCEHAARIINDLLQSLRSGPPGPPGGPGMPPGGRGRGRGQGNWGPPGGEMTFSIPTHKCGLVIGRGGENVKAINQQTGAFVEISRQLPPNGDPNFKLFIIRGSPQQIDHAKQLIEEKIEGPLCPVGPGPGGPGPAGPMGPFNPGPFNQGPPGAPPHAGGPPPHQYPPQGWGNTYPQWQPPAPHDPSKAAAAAADPNAAWAAYYSHYYQQPPGPVPGPAPAPAAPPAQGEPPQPPPTGQSDYTKAWEEYYKKIGQQPQQPGAPPQQDYTKAWEEYYKKQAQVATGGGPGAPPGSQPDYSAAWAEYYRQQAAYYGQTPGPGGPQPPPTQQGQQQAQ
B3: WD repeat and HMG-box DNA-binding protein 1 (protein, UniProt O75717 1-1129)
chain: MPATRKPMRYGHTEGHTEVCFDDSGSFIVTCGSDGDVRIWEDLDDDDPKFINVGEKAYSCALKSGKLVTAVSNNTIQVHTFPEGVPDGILTRFTTNANHVVFNGDGTKIAAGSSDFLVKIVDVMDSSQQKTFRGHDAPVLSLSFDPKDIFLASASCDGSVRVWQISDQTCAISWPLLQKCNDVINAKSICRLAWQPKSGKLLAIPVEKSVKLYRRESWSHQFDLSDNFISQTLNIVTWSPCGQYLAAGSINGLIIVWNVETKDCMERVKHEKGYAICGLAWHPTCGRISYTDAEGNLGLLENVCDPSGKTSSSKVSSRVEKDYNDLFDGDDMSNAGDFLNDNAVEIPSFSKGIINDDEDDEDLMMASGRPRQRSHILEDDENSVDISMLKTGSSLLKEEEEDGQEGSIHNLPLVTSQRPFYDGPMPTPRQKPFQSGSTPLHLTHRFMVWNSIGIIRCYNDEQDNAIDVEFHDTSIHHATHLSNTLNYTIADLSHEAILLACESTDELASKLHCLHFSSWDSSKEWIIDLPQNEDIEAICLGQGWAAAATSALLLRLFTIGGVQKEVFSLAGPVVSMAGHGEQLFIVYHRGTGFDGDQCLGVQLLELGKKKKQILHGDPLPLTRKSYLAWIGFSAEGTPCYVDSEGIVRMLNRGLGNTWTPICNTREHCKGKSDHYWVVGIHENPQQLRCIPCKGSRFPPTLPRPAVAILSFKLPYCQIATEKGQMEEQFWRSVIFHNHLDYLAKNGYEYEESTKNQATKEQQELLMKMLALSCKLEREFRCVELADLMTQNAVNLAIKYASRSRKLILAQKLSELAVEKAAELTATQVEEEEEEEDFRKKLNAGYSNTATEWSQPRFRNQVEEDAEDSGEADDEEKPEIHKPGQNSFSKSTNSSDVSAKSGAVTFSSQGRVNPFKVSASSKEPAMSMNSARSTNILDNMGKSSKKSTALSRTTNNEKSPIIKPLIPKPKPKQASAASYFQKRNSQTNKTEEVKEENLKNVLSETPAICPPQNTENQRPKTGFQMWLEENRSNILSDNPDFSDEADIIKEGMIRFRVLSTEERKVWANKAKGETASEGTEAKKRKRVVDESDETENQEEKAKENLNLSKKQKPLDFSTNQKLSAFAFKQE
B4: Electron transfer flavoprotein subunit alpha, mitochondrial (protein, UniProt P13804 20-333)
chain: QSTLVIAEHANDSLAPITLNTITAATRLGGEVSCLVAGTKCDKVAQDLCKVAGIAKVLVAQHDVYKGLLPEELTPLILATQKQFNYTHICAGASAFGKNLLPRVAAKLEVAPISDIIAIKSPDTFVRTIYAGNALCTVKCDEKVKVFSVRGTSFDAAATSGGSASSEKASSTSPVEISEWLDQKLTKSDRPELTGAKVVVSGGRGLKSGENFKLLYDLADQLHAAVGASRAAVDAGFVPNDMQVGQTGKIVAPELYIAVGISGAIQHLAGMKDSKTIVAINKDPEAPIFQVADYGIVADLFKVVPEMTEILKKK
B5: Kinesin-like protein KIF23 (protein, UniProt Q02241 1-960)
chain: MKSARAKTPRKPTVKKGSQTNLKDPVGVYCRVRPLGFPDQECCIEVINNTTVQLHTPEGYRLNRNGDYKETQYSFKQVFGTHTTQKELFDVVANPLVNDLIHGKNGLLFTYGVTGSGKTHTMTGSPGEGGLLPRCLDMIFNSIGSFQAKRYVFKSNDRNSMDIQCEVDALLERQKREAMPNPKTSSSKRQVDPEFADMITVQEFCKAEEVDEDSVYGVFVSYIEIYNNYIYDLLEEVPFDPIKPKPPQSKLLREDKNHNMYVAGCTEVEVKSTEEAFEVFWRGQKKRRIANTHLNRESSRSHSVFNIKLVQAPLDADGDNVLQEKEQITISQLSLVDLAGSERTNRTRAEGNRLREAGNINQSLMTLRTCMDVLRENQMYGTNKMVPYRDSKLTHLFKNYFDGEGKVRMIVCVNPKAEDYEENLQVMRFAEVTQEVEVARPVDKAICGLTPGRRYRNQPRGPVGNEPLVTDVVLQSFPPLPSCEILDINDEQTLPRLIEALEKRHNLRQMMIDEFNKQSNAFKALLQEFDNAVLSKENHMQGKLNEKEKMISGQKLEIERLEKKNKTLEYKIEILEKTTTIYEEDKRNLQQELETQNQKLQRQFSDKRRLEARLQGMVTETTMKWEKECERRVAAKQLEMQNKLWVKDEKLKQLKAIVTEPKTEKPERPSRERDREKVTQRSVSPSPVPLSSNYIAQISNGQQLMSQPQLHRRSNSCSSISVASCISEWEQKIPTYNTPLKVTSIARRRQQEPGQSKTCIVSDRRRGMYWTEGREVVPTFRNEIEIEEDHCGRLLFQPDQNAPPIRLRHRRSRSAGDRWVDHKPASNMQTETVMQPHVPHAITVSVANEKALAKCEKYMLTHQELASDGEIETKLIKGDIYKTRGGGQSVQFTDIETLKQESPNGSRKRRSSTVAPAQPDGAESEWTDVETRCSVAVEMRAGSQLGPGYQHHAQPKRKKP
B6: Rac GTPase-activating protein 1 (protein, UniProt Q9H0H5 1-632)
chain: MDTMMLNVRNLFEQLVRRVEILSEGNEVQFIQLAKDFEDFRKKWQRTDHELGKYKDLLMKAETERSALDVKLKHARNQVDVEIKRRQRAEADCEKLERQIQLIREMLMCDTSGSIQLSEEQKSALAFLNRGQPSSSNAGNKRLSTIDESGSILSDISFDKTDESLDWDSSLVKTFKLKKREKRRSTSRQFVDGPPGPVKKTRSIGSAVDQGNESIVAKTTVTVPNDGGPIEAVSTIETVPYWTRSRRKTGTLQPWNSDSTLNSRQLEPRTETDSVGTPQSNGGMRLHDFVSKTVIKPESCVPCGKRIKFGKLSLKCRDCRVVSHPECRDRCPLPCIPTLIGTPVKIGEGMLADFVSQTSPMIPSIVVHCVNEIEQRGLTETGLYRISGCDRTVKELKEKFLRVKTVPLLSKVDDIHAICSLLKDFLRNLKEPLLTFRLNRAFMEAAEITDEDNSIAAMYQAVGELPQANRDTLAFLMIHLQRVAQSPHTKMDVANLAKVFGPTIVAHAVPNPDPVTMLQDIKRQPKVVERLLSLPLEYWSQFMMVEQENIDPLHVIENSNAFSTPQTPDIKVSLLGPVTTPEHQLLKTPSSSSLSQRVRSTLTKNTPRFGSKSKSATNLGRQGNFFASPMLK
B7: Aconitate hydratase, mitochondrial (protein, UniProt Q99798 28-780)
chain: QRAKVAMSHFEPNEYIHYDLLEKNINIVRKRLNRPLTLSEKIVYGHLDDPASQEIERGKSYLRLRPDRVAMQDATAQMAMLQFISSGLSKVAVPSTIHCDHLIEAQVGGEKDLRRAKDINQEVYNFLATAGAKYGVGFWKPGSGIIHQIILENYAYPGVLLIGTDSHTPNGGGLGGICIGVGGADAVDVMAGIPWELKCPKVIGVKLTGSLSGWSSPKDVILKVAGILTVKGGTGAIVEYHGPGVDSISCTGMATICNMGAEIGATTSVFPYNHRMKKYLSKTGREDIANLADEFKDHLVPDPGCHYDQLIEINLSELKPHINGPFTPDLAHPVAEVGKVAEKEGWPLDIRVGLIGSCTNSSYEDMGRSAAVAKQALAHGLKCKSQFTITPGSEQIRATIERDGYAQILRDLGGIVLANACGPCIGQWDRKDIKKGEKNTIVTSYNRNFTGRNDANPETHAFVTSPEIVTALAIAGTLKFNPETDYLTGTDGKKFRLEAPDADELPKGEFDPGQDTYQHPPKDSSGQHVDVSPTSQRLQLLEPFDKWDGKDLEDLQILIKVKGKCTTDHISAAGPWLKFRGHLDNISNNLLIGAINIENGKANSVRNAVTQEFGPVPDTARYYKKHGIRWVVIGDENYGEGSSREHAALEPRHLGGRAIITKSFARIHETNLKKQGLLPLTFADPADYNKIHPVDKLTIQGLKDFTPGKPLKCIIKHPNGTQETILLNHTFNETQIEWFRAGSALNRMKELQQ

Sequences of proteins named here, by UniProt entry; tags and fusion partners are left off.
UniProt P27986: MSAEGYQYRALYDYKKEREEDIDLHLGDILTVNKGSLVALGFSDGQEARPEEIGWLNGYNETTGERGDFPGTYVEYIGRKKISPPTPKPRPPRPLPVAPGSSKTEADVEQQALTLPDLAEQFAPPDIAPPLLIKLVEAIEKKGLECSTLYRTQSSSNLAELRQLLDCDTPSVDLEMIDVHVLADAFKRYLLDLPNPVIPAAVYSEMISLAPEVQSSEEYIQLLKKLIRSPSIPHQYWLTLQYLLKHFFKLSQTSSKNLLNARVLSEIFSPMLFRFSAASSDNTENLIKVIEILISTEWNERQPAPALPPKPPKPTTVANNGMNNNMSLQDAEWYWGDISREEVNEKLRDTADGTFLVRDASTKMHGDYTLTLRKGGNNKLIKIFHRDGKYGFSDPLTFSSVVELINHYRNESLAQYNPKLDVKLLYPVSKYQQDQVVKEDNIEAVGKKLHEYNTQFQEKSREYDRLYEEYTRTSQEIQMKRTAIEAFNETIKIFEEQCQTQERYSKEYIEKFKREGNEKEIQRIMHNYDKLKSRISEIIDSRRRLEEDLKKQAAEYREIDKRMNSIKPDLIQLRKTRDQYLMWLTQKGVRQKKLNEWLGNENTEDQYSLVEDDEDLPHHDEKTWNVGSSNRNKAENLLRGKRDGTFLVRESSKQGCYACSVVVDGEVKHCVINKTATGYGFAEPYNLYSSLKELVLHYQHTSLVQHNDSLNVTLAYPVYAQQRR

Target: p85α regulatory subunit of phosphoinositide-3-kinase (PI3K) (human (endogenous in human cell lines)) (UniProt P27986)
Test: affinity purification with mass spectrometry; IP of endogenous p85α (rabbit polyclonal antibody) from 10 mg lysate (0.5% NP-40) of human NSCLC and multiple myeloma lines under serum, starvation or kinase inhibitors, short SDS-PAGE, LC-MS/MS; hits kept after reciprocal BLAST and subtraction of rabbit IgG controls

binding, binds:
B1
B2
B3
B4
B5
B6
B7

Source: publication PMC4738311
